≈ marks a conversion by molar mass, not a printed value.
Key:
[1] = Solubility of compound in FeSSIF at pH 7.4; conditions: simulated gi fluid
[2] = Solubility of compound in FaSSIF at pH 7.4; conditions: simulated gi fluid
[3] = Kinetic solubility of the compound at pH 7.4; conditions: buffer

## CCN1CCc2cc(O)c(N3CC(=O)NS3(=O)=O)c(F)c2CC1
[1]
  solubility: 223 µM (≈ 76.6 µg/mL)
[2]
  solubility: 226 µM (≈ 77.6 µg/mL)
[3]
  solubility kinetic: 225 µM (≈ 77.3 µg/mL)
